According to patent US20060251669A1:
No constants are given. Whether binding was seen depends on the method and setting. Some entries that bind do so weakly or less than the wild type.

Amino acid sequences for entries named in this document (tags omitted). A change or cut given only in a name is not applied to a line headed by its entry. Residues count along the entry.
Pf MSP1-42, C-terminal fragment of the P. falciparum merozoite surface protein MSP1 (Q8I0U8, residues 1327-1699): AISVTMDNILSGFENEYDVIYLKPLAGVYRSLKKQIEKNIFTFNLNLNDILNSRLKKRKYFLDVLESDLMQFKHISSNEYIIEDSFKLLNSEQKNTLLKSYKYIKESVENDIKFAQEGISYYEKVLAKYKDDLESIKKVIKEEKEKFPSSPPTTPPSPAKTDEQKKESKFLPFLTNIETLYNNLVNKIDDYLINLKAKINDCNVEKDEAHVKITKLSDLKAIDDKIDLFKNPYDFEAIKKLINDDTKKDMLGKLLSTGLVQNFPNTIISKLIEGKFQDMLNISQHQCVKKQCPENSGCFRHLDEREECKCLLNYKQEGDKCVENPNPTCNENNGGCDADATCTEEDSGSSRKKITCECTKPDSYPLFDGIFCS
Pf MSP1-19, C-terminal fragment of the P. falciparum merozoite surface protein MSP1 (Q8I0U8, residues 1607-1699): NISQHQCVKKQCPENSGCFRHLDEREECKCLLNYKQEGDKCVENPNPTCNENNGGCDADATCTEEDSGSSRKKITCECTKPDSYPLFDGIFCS
UniProt B3EWN9: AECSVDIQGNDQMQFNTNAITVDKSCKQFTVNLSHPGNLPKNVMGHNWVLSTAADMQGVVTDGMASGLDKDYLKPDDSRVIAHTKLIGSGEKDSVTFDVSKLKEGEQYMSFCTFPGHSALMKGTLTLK

B1: Laz from Neisseria gonorrhoeae F62 (protein)
chain: CSQEPAAPAAEATPAGEAPASEAPAAEAAPADAAEAPAAGNCAATVESNDNMQFNTKDIQVSKACKEFTITLKHTGTQPKASMGHNLVIAKAEDMDGVFKDGVGAADTDYVKPDDARVVAHTKLIGGGEESSLTLDPAKLADGDYKFACTFPGHGALMNGKVTLVD

What was measured:
[1] = biological target: Pf MSP1-19, C-terminal fragment of the P. falciparum merozoite surface protein MSP1 (Plasmodium falciparum) (UniProt Q8I0U8); assay: SPR, MSP1-19 immobilized on CM5
[2] = biological target: Pf MSP1-42, C-terminal fragment of the P. falciparum merozoite surface protein MSP1 (Plasmodium falciparum) (UniProt Q8I0U8); assay: SPR, MSP1-42 immobilized on CM5

Row | Molecule | binding [1] | binding [2]
1 | GST-Azu 36-89 (GST fused to azurin amino acids 36 to 89) (from UniProt B3EWN9 36-89) | binds | 
2 | GST-Azu 36-128 (GST fused to azurin amino acids 36 to 128) (from UniProt P00282 56-148) | binds | 
3 | azurin from Pseudomonas aeruginosa (from UniProt P00282 21-148) | binds | binds
4 | B1 | binds | binds
